The values that follow come from publication PMC5780443.

Amino acid sequences for entries named in this document (tags omitted).
UniProt Q13304: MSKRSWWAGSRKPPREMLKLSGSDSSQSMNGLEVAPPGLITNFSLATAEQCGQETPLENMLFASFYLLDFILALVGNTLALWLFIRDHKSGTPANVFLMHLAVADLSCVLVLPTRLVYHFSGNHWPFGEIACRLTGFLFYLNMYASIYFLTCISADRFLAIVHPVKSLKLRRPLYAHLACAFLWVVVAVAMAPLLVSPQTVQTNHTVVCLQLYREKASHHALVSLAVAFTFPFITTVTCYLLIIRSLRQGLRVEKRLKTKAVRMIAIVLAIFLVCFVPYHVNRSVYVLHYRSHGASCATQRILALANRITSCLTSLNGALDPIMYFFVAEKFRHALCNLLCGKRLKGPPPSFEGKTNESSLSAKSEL
UniProt P32121: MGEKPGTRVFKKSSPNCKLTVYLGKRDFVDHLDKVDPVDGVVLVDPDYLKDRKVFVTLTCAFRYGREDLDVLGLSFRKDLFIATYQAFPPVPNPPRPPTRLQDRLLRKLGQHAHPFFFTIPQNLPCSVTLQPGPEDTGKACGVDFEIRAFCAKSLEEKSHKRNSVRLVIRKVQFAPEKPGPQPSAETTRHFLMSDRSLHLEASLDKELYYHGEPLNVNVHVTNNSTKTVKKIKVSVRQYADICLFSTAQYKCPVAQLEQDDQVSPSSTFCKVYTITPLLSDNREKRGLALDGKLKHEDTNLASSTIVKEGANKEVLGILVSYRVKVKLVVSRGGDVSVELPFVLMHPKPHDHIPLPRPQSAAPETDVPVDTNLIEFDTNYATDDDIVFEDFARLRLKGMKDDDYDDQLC

These are yes or no findings as the source states them, for the method shown. In cells and extracts the contact can be indirect. Some entries that bind do so weakly or less than the wild type. For part of these data: Tags and fused reporters may be left off the sequences shown.

Experiment [1] concerns the target T1, D prostanoid receptor-2, Renilla luciferase (Rluc)-tagged (UniProt Q9Y5Y4).
T1 sequence: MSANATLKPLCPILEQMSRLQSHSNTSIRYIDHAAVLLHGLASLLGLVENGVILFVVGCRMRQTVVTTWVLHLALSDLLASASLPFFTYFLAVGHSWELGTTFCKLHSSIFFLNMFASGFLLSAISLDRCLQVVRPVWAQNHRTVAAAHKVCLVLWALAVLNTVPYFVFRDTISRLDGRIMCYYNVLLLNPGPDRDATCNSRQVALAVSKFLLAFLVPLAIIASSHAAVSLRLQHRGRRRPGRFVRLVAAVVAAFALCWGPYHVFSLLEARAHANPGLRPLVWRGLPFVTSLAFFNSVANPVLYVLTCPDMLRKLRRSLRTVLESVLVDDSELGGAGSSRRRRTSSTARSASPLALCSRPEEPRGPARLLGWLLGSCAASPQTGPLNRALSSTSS
Put plainly: FRET or BRET; BRET2 in live transfected HEK293 cells: Rluc-tagged receptor (donor) and GFP-tagged β-arrestin2 (acceptor), donor:acceptor 1:4; HBSS + 20 mM HEPES, 37 °C, agonist for 10 min (PGD2, MDL29,951 or CNO), DeepBlueC 5 µM; wild-type cells without or with PTX and/or FR900359, or ΔGsix cells + PTX. For orientation: In BRET a luciferase serves as donor, and the signal depends on an acceptor being close.

Experiment [2] concerns the target GPR17, Renilla luciferase (Rluc)-tagged (UniProt Q13304). Described as above.
The target in experiment [3] is T2, free fatty acid receptor-2, eYFP-tagged (UniProt O15552).
T2 sequence: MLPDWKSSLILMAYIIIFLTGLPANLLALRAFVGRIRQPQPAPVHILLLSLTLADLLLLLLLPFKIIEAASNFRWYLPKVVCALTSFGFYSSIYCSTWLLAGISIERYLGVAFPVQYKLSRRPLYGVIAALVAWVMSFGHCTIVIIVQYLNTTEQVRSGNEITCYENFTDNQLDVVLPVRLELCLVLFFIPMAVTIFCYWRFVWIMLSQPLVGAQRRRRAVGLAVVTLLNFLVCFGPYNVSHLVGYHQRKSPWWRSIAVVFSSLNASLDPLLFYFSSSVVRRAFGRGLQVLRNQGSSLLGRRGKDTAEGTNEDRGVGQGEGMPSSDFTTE
Put plainly: FRET or BRET; BRET1 in live transfected HEK293 cells: Rluc-tagged β-arrestin2 (donor) and eYFP-tagged FFA2 (acceptor), donor:acceptor 1:4; HBSS + 20 mM HEPES, coelenterazin h 5 µM, propionic acid (C3) for 5 min; wild-type or ΔG12/13 cells without or with PTX and FR900359.

As for “GFP-tagged β-arrestin2 (from UniProt P32121 1-409)”, the binding entry in experiment [1] and in experiment [2] was “binds” throughout. Turning to “Rluc-tagged β-arrestin2 (from UniProt P32121 1-409)”, the binding entry in experiment [3] is given as “binds”.
